# Results taken from patent US7960377B2 (priority 2008, dated 2011).
# Protein sequences, listed by entry. Tags and fused reporters are not part of them.
# UniProt P34972, whole entry: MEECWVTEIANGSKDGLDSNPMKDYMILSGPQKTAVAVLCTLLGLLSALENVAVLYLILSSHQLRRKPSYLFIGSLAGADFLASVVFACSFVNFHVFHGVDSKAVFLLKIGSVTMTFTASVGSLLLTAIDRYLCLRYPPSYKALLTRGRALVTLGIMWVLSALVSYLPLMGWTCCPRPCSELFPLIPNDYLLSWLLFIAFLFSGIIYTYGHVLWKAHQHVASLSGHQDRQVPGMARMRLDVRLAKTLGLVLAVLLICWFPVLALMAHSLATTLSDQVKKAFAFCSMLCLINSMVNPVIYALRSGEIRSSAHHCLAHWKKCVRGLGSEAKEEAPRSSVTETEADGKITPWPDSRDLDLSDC
# Some of these results come from one statement about several compounds together.
# Molecular target: human CB2 receptor (Homo sapiens, UniProt P34972)
# Format: cell-based
# Conditions: read-out: EC50 values for human CB2 receptor; change in intracellular cAMP, CHO-K1 hCB2 cells; EC50 bins in nM
row,Structure (SMILES),EC50
1,"O=C(NC1CCC1)c1cnc2c(c1)N(S(=O)(=O)c1ccc(Cl)c(Cl)c1)CCO2 [Example 137, N-cyclobutyl-1-(3,4-dichlorophenylsulfonyl)-2,3-dihydro-1H-pyrido[2,3-b][1,4]oxazine-7-carboxamide]",30 to 300 nM
2,"O=C(NCc1ccccc1)c1cnc2c(c1)N(S(=O)(=O)c1ccc(Cl)c(Cl)c1)CCO2 [Example 138, N-benzyl-1-(3,4-dichlorophenylsulfonyl)-2,3-dihydro-1H-pyrido[2,3-b][1,4]oxazine-7-carboxamide]",30 to 300 nM
3,"CCOC(=O)C1(NC(=O)c2cnc3c(c2)N(S(=O)(=O)c2ccc(Cl)c(Cl)c2)CCO3)CCC1 [Example 139, ethyl 1-(1-(3,4-dichloro-phenylsulfonyl)-2,3-dihydro-1H-pyrido[2,3-b][1,4]oxazine-7-carboxamido)cyclobutane-carboxylate]",30 to 300 nM
4,"CC(C)(CO)NC(=O)c1cnc2c(c1)N(S(=O)(=O)N1CCCCC1)CCO2 [Example 146, N-(1-hydroxy-2-methylpropan-2-yl)-1-(piperidin-1-ylsulfonyl)-2,3-dihydro-1H-pyrido[2,3-b][1,4]oxazine-7-carboxamide]",30 to 300 nM
5,"CC(C)(C)NC(=O)c1cnc2c(c1)N(S(=O)(=O)N1CCC(F)CC1)CCO2 [Example 166, N-tert-butyl-1-(4-fluoropiperidin-1-ylsulfonyl)-2,3-dihydro-1H-pyrido[2,3-b][1,4]oxazine-7-carboxamide]",30 to 300 nM
6,"CC(C)(CO)CNC(=O)c1cnc2c(c1)N(S(=O)(=O)N1CCC(F)CC1)CCO2 [Example 169, 1-(4-fluoropiperidin-1-ylsulfonyl)-N-(3-hydroxy-2,2-dimethylpropyl)-2,3-dihydro-1H-pyrido[2,3-b][1,4]oxazine-7-carboxamide]",30 to 300 nM
7,"CC1CCN(S(=O)(=O)N2CCOc3ncc(C(=O)NC(C)(C)C)cc32)CC1 [Example 170, N-tert-butyl-1-(4-methylpiperidin-1-ylsulfonyl)-2,3-dihydro-1H-pyrido[2,3-b][1,4]oxazine-7-carboxamide]",30 to 300 nM
8,"CCC(C)(C)NC(=O)c1cnc2c(c1)N(S(=O)(=O)N1CCC(C)CC1)CCO2 [Example 171, 1-(4-methylpiperidin-1-ylsulfonyl)-N-tert-pentyl-2,3-dihydro-1H-pyrido[2,3-b][1,4]oxazine-7-carboxamide]",30 to 300 nM
9,"CC1CCN(S(=O)(=O)N2CCOc3ncc(C(=O)NC(C)(C)CO)cc32)CC1 [Example 172, N-(1-hydroxy-2-methylpropan-2-yl)-1-(4-methylpiperidin-1-ylsulfonyl)-2,3-dihydro-1H-pyrido[2,3-b][1,4]oxazine-7-carboxamide]",30 to 300 nM
10,"CC(C)CNS(=O)(=O)N1CCOc2ncc(C(=O)NC(C)(C)C)cc21 [Example 180, N-tert-butyl-1-(N-isobutylsulfamoyl)-2,3-dihydro-1H-pyrido[2,3-b][1,4]oxazine-7-carboxamide]",30 to 300 nM
11,"CC(C)CNS(=O)(=O)N1CCOc2ncc(C(=O)NCC(C)(C)CO)cc21 [Example 182, N-(3-hydroxy-2,2-dimethylpropyl)-1-(N-isobutylsulfamoyl)-2,3-dihydro-1H-pyrido[2,3-b][1,4]oxazine-7-carboxamide]",30 to 300 nM
12,"C[C@@H]1CCC[C@H](C)N1C(=O)c1cnc2c(c1)N(S(=O)(=O)c1ccc(C(F)(F)F)cc1)CCO2 [Example 197, (cis-2,6-dimethylpiperidin-1-yl)(1-(4-(trifluoromethyl)phenylsulf-onyl)-2,3-dihydro-1H-pyrido[2,3-b][1,4]oxazin-7-yl)methanone]",30 to 300 nM
13,"O=C(NC1(CO)CCC1)c1cnc2c(c1)N(S(=O)(=O)c1ccc(Cl)c(Cl)c1)CCO2 [Example 209, 1-(3,4-dichlorophenylsulfonyl)-N-(1-(hydroxymethyl)cyclobutyl)-2,3-dihydro-1H-pyrido[2,3-b][1,4]oxazine-7-carboxamide]",30 to 300 nM
14,"CCc1noc(-c2cnc3c(c2)N(S(=O)(=O)c2ccccc2)CCO3)n1 [Example 210, 7-(3-ethyl-1,2,4-oxadiazol-5-yl)-1-(phenylsulfonyl)-2,3-dihydro-1H-pyrido[2,3-b][1,4]oxazine]",30 to 300 nM
15,"CC1(C)N=C(c2cnc3c(c2)N(S(=O)(=O)c2ccc(C(F)(F)F)cc2)CCO3)NO1 [Example 223, 7-(5,5-dimethyl-2,5-dihydro-1,2,4-oxadiazol-3-yl)-1-(4-(trifluoromethyl)phenylsulfonyl)-2,3-dihydro-1H-pyrido[2,3-b][1,4]oxazine]",30 to 300 nM

# Same assay, conditions: read-out: EC50 values for human CB2 receptor; change in intracellular cAMP, CHO-K1 hCB2 cells; bin >300 nM-3 μM, units given in the value
row,Structure (SMILES),EC50
1,"CC(C)(C)NC(=O)c1cnc2c(c1)N(S(=O)(=O)N1CCOCC1)CCO2 [Example 140, N-tert-butyl-1-(morpholinosulfonyl)-2,3-dihydro-1H-pyrido[2,3-b][1,4]oxazine-7-carboxamide]",300 to 3000 nM
2,"CC(C)(C)NC(=O)c1cnc2c(c1)N(S(=O)(=O)NCc1ccccc1)CCO2 [Example 178, 1-(N-benzylsulfamoyl)-N-tert-butyl-2,3-dihydro-1H-pyrido[2,3-b][1,4]oxazine-7-carboxamide]",300 to 3000 nM

# Same assay, conditions: read-out: EC50 values for human CB2 receptor; change in intracellular cAMP, CHO-K1 hCB2 cells; bin in μM
row,Structure (SMILES),EC50
1,"CN(C)S(=O)(=O)N1CCOc2ncc(C(=O)NC(C)(C)C)cc21 [Example 145, N-tert-butyl-1-(N,N-dimethylsulfamoyl)-2,3-dihydro-1H-pyrido[2,3-b][1,4]oxazine-7-carboxamide]",3000 to 30000 nM
2,"CC1CN(C(=O)c2cnc3c(c2)N(S(=O)(=O)c2ccc(C(F)(F)F)cc2)CCO3)CC(C)O1 (stereo not shown) [Example 199, (2,6-dimethylmorpholino)(1-(4-(trifluoromethyl)phenylsulf-onyl)-2,3-dihydro-1H-pyrido[2,3-b][1,4]oxazin-7-yl)methanone]",3000 to 30000 nM
3,"CNCCOC(=O)c1cnc2c(c1)N(S(=O)(=O)c1ccc(Cl)c(Cl)c1)CCO2 [Example 203, 2-(methylamino)ethyl 1-(3,4-dichlorophenylsulfonyl)-2,3-dihydro-1H-pyrido[2,3-b][1,4]oxazine-7-carboxylate]",3000 to 30000 nM
4,"CC1(C)CN=C(c2cnc3c(c2)N(S(=O)(=O)c2ccc(C(F)(F)F)cc2)CCO3)NC1 [Example 225, 7-(5,5-dimethyl-1,4,5,6-tetrahydropyrimidin-2-yl)-1-(4-(trifluoromethyl)phenylsulfonyl)-2,3-dihydro-1H-pyrido[2,3-b][1,4]oxazine]",3000 to 30000 nM

# Molecular target: T1, rat CB2 receptor (Rattus norvegicus, UniProt Q9QZN9)
# T1 sequence (Q9QZN9 1-360): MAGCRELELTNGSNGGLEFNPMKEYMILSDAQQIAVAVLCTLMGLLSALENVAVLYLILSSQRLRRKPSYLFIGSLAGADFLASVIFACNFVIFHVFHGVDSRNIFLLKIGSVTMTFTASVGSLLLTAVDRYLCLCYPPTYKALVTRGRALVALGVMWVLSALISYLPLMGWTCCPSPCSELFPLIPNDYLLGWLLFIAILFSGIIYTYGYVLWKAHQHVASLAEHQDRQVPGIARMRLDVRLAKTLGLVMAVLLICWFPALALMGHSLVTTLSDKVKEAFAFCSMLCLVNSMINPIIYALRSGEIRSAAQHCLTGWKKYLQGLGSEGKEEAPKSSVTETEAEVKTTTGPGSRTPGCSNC
# Format: cell-based
# Conditions: read-out: EC50 values for rat CB2 receptor; change in intracellular cAMP, CHO-K1 rCB2 cells; EC50 bins in nM
row,Structure (SMILES),EC50
1,"CC(C)(C)NC(=O)c1cnc2c(c1)N(S(=O)(=O)c1cc(Cl)cc(Cl)c1)CCO2 [Example 53, N-tert-butyl-1-(3,5-dichlorophenylsulfonyl)-2,3-dihydro-1H-pyrido[2,3-b][1,4]oxazine-7-carboxamide]",30 to 300 nM
2,"CC(C)(C)NC(=O)c1cnc2c(c1)N(S(=O)(=O)c1cccc3ccccc13)CCO2 [Example 87, N-tert-butyl-1-(naphthalen-1-ylsulfonyl)-2,3-dihydro-1H-pyrido[2,3-b][1,4]oxazine-7-carboxamide]",30 to 300 nM
3,"CC(C)(C)NC(=O)c1cnc2c(c1)N(S(=O)(=O)c1ccc3ccccc3c1)CCO2 [Example 88, N-tert-butyl-1-(naphthalen-2-ylsulfonyl)-2,3-dihydro-1H-pyrido[2,3-b][1,4]oxazine-7-carboxamide]",30 to 300 nM

# Same assay, conditions: read-out: EC50 values for rat CB2 receptor; change in intracellular cAMP, CHO-K1 rCB2 cells; bin >300 nM-3 μM, units given in the value
row,Structure (SMILES),EC50
1,"CCS(=O)(=O)N1CCOc2ncc(C(=O)NC(C)(C)C)cc21 [Example 80, N-tert-butyl-1-(ethylsulfonyl)-2,3-dihydro-1H-pyrido[2,3-b][1,4]oxazine-7-carboxamide]",300 to 3000 nM
